These are yes or no findings as the source states them, for the method shown. In cells and extracts the contact can be indirect. Some entries that bind do so weakly or less than the wild type.

Amino acid sequences for entries named in this document (tags omitted).
UniProt A2A884: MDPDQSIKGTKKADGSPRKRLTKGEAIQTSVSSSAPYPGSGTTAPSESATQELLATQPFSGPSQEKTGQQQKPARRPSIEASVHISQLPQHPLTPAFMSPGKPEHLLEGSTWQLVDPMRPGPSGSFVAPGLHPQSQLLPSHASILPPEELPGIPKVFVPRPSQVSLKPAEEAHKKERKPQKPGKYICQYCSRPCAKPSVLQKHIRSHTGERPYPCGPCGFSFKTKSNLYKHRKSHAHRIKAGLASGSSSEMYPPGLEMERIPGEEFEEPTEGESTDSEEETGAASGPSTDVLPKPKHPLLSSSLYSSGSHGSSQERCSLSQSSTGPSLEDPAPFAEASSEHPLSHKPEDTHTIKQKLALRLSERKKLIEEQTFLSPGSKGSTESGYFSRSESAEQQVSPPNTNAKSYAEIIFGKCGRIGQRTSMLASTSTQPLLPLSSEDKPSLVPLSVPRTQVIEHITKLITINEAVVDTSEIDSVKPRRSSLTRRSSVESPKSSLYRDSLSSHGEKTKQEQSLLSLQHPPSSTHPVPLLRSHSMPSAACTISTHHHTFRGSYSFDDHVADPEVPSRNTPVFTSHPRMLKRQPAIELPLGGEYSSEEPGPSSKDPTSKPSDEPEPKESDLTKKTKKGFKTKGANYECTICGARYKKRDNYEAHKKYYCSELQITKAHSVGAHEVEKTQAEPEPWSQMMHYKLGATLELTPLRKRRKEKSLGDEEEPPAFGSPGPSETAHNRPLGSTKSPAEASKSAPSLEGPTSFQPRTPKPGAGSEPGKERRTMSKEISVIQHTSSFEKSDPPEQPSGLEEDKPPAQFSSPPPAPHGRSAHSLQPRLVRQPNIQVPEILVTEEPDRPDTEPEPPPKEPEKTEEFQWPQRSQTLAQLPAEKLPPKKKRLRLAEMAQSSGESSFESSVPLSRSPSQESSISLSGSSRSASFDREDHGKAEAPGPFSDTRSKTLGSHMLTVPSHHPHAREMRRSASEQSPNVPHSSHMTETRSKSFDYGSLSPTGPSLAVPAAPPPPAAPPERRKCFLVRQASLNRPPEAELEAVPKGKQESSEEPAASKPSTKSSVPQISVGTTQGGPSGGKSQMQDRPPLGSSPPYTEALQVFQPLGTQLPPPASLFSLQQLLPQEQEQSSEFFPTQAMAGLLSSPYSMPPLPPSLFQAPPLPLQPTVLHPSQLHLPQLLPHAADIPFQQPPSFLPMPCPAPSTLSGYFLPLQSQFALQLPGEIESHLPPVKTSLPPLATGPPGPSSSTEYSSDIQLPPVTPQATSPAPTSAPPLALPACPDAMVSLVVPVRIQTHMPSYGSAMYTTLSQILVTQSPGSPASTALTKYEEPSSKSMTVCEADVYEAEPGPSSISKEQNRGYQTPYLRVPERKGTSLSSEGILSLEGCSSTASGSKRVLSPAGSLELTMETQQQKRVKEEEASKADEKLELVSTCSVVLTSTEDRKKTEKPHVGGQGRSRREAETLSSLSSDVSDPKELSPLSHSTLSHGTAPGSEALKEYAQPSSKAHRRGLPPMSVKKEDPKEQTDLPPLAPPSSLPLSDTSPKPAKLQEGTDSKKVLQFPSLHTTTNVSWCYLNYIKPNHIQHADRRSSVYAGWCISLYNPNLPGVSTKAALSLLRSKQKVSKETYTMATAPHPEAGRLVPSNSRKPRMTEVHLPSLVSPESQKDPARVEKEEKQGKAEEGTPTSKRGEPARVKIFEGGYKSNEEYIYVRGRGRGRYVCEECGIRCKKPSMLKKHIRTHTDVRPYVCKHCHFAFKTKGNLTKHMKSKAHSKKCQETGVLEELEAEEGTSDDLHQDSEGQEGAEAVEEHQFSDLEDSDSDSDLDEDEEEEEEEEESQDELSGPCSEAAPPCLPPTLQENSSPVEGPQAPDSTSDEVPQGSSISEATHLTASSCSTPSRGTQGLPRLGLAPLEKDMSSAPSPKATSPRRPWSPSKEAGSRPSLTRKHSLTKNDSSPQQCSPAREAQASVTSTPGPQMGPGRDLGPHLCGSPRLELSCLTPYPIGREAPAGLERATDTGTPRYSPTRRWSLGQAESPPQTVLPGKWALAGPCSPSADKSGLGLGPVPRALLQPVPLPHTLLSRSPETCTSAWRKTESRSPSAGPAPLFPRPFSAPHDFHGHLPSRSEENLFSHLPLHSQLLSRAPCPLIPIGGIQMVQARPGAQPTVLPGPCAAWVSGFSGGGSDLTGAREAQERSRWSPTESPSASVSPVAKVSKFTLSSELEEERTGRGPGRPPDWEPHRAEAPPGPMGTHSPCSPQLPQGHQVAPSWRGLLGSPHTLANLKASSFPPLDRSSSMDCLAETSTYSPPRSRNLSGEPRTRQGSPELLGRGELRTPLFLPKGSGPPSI

This is an account of results in patent publication US20100204053A1.

The target of experiment [1] is endogenous Shn3 in MC3T3-E1 osteoblastic cells (UniProt A2A884). As to the kind of experiment: co-immunoprecipitation of endogenous proteins (anti-Runx2 IP, Shn3 immunoblot) from differentiated MC3T3-E1 cells, with or without TGF-β.
For experiment [2], the target named is endogenous Runx2 in MC3T3-E1 osteoblastic cells (UniProt Q08775). Kind of experiment: restatement of the co-immunoprecipitation result with TGFβ treatment.

As for “endogenous Runx2 in MC3T3-E1 osteoblastic cells (from UniProt Q08775 1-528)”, the binding result in experiment [1] is given as “binds”. For the substance “endogenous Shn3 in MC3T3-E1 osteoblastic cells (from UniProt A2A884 1-2348)”, in experiment [2], the binding result is “binds”.
